PubChem BioAssay AID1159584 – Peter MacCallum Cancer Centre – 2016

Purpose: 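Knock-downs that harm CDH1-null cells more than parental MCF10A cells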 (primary screen)
Cell system: human MCF10A breast epithelial cells, parental and CDH1-null
Reagents: siRNA against human genes
Read-out: 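ATP luminescence (CellTiter-Glo) viability per line relative to mean mock wells over all plates, and the ratio of CDH1-null to parental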
Direction: CDH1-null / parental viability ratio: higher = CDH1-null cells survive relatively better than parental; CDH1-null viability vs mock: higher = more viable CDH1-null cells
Units: CDH1-null viability vs mock in fraction of mock
Shown is a random part of about 18,000 reagents. Not all columns of the deposit are shown. No sequences are given here. The record does not give: the amount of reagent, the time to read-out.

Against BRI3BP, the entry reads CDH1-null / parental viability ratio 1.02; CDH1-null viability vs mock 0.9.
With knock-down of PGM2L1, the record shows CDH1-null / parental viability ratio 0.88; CDH1-null viability vs mock 0.52.
Silencing of ZNF582 resulted in: CDH1-null / parental viability ratio 1.11; CDH1-null viability vs mock 0.51.
TCTN3 gave CDH1-null / parental viability ratio 0.83; CDH1-null viability vs mock 0.62.
For PPDPF, the values are CDH1-null / parental viability ratio 0.84; CDH1-null viability vs mock 0.7.
For SCG5 the deposit lists CDH1-null / parental viability ratio 1.19; CDH1-null viability vs mock 1.17.
Against HSD17B1, the values are CDH1-null / parental viability ratio 1.03; CDH1-null viability vs mock 1.05.
After knock-down of TNFRSF4, the record shows CDH1-null / parental viability ratio 1.14; CDH1-null viability vs mock 0.73.
Silencing of CLTC resulted in: CDH1-null / parental viability ratio 0.92; CDH1-null viability vs mock 0.66.
Against FAM9B the deposit lists CDH1-null / parental viability ratio 1.06; CDH1-null viability vs mock 1.1.
HFM1 scored CDH1-null / parental viability ratio 1; CDH1-null viability vs mock 0.97.
Depletion of ERGIC1 resulted in: CDH1-null / parental viability ratio 1; CDH1-null viability vs mock 0.9.
Against MFSD2B, the entry reads CDH1-null / parental viability ratio 0.94; CDH1-null viability vs mock 0.76.
Depletion of CGB5 gave: CDH1-null / parental viability ratio 0.94; CDH1-null viability vs mock 0.64.
CDYL scored CDH1-null / parental viability ratio 1; CDH1-null viability vs mock 0.84.
Against NUS1, the entry reads CDH1-null / parental viability ratio 1.02; CDH1-null viability vs mock 0.9.
Silencing of GBP1 resulted in: CDH1-null / parental viability ratio 1.06; CDH1-null viability vs mock 0.9.
With knock-down of TAB2, the screen gave CDH1-null / parental viability ratio 1.04; CDH1-null viability vs mock 1.02.
After knock-down of MBD6, the screen gave CDH1-null / parental viability ratio 0.98; CDH1-null viability vs mock 1.08.
Silencing of EFTUD2 resulted in: CDH1-null / parental viability ratio 1.38; CDH1-null viability vs mock 0.36.
NXPH4 showed CDH1-null / parental viability ratio 0.74; CDH1-null viability vs mock 0.48.
With knock-down of CLEC6A, the record shows CDH1-null / parental viability ratio 1.12; CDH1-null viability vs mock 0.76.
PCNX2 scored CDH1-null / parental viability ratio 0.84; CDH1-null viability vs mock 0.74.
TPPP scored CDH1-null / parental viability ratio 1.41; CDH1-null viability vs mock 0.9.
Silencing of EID3 gave: CDH1-null / parental viability ratio 1.05; CDH1-null viability vs mock 0.78.
FBXL16 scored CDH1-null / parental viability ratio 1.14; CDH1-null viability vs mock 0.84.
For RPUSD4, the entry reads CDH1-null / parental viability ratio 1.13; CDH1-null viability vs mock 0.77.
Knock-down of CTSZ came out at: CDH1-null / parental viability ratio 1.34; CDH1-null viability vs mock 0.86.
ZNRF1 showed CDH1-null / parental viability ratio 0.89; CDH1-null viability vs mock 0.68.
Against LBR, the entry reads CDH1-null / parental viability ratio 0.8; CDH1-null viability vs mock 0.74.
BRIX1 scored CDH1-null / parental viability ratio 1.18; CDH1-null viability vs mock 0.78.
HDLBP gave CDH1-null / parental viability ratio 1.04; CDH1-null viability vs mock 0.98.
CD200R1 showed CDH1-null / parental viability ratio 0.84; CDH1-null viability vs mock 0.76.
ACBD6 gave CDH1-null / parental viability ratio 1.22; CDH1-null viability vs mock 1.33.
Depletion of MAPRE2 came out at: CDH1-null / parental viability ratio 1.11; CDH1-null viability vs mock 0.63.

No new results follow: 6 of the entries above.
TAB2: CDH1-null / parental viability ratio = 1.04; CDH1-null viability vs mock = 1.02
MBD6: CDH1-null / parental viability ratio = 0.98; CDH1-null viability vs mock = 1.08
EFTUD2: CDH1-null / parental viability ratio = 1.38; CDH1-null viability vs mock = 0.36
NXPH4: CDH1-null / parental viability ratio = 0.74; CDH1-null viability vs mock = 0.48
CLEC6A: CDH1-null / parental viability ratio = 1.12; CDH1-null viability vs mock = 0.76
PCNX2: CDH1-null / parental viability ratio = 0.84; CDH1-null viability vs mock = 0.74
